The results in this text go back to PubChem BioAssay AID504594 (Broad Institute, 2011).

In all, about 2,000 compounds went through this assay and fewer than 10 were called active.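 The calls were made as follows: active = growth inhibition of at least 75% in every replicate, which also brings the mean inhibition to 75% or more; inconclusive = mean inhibition 75% or more but some replicate under 75%; inactive = the rest.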 The list shows a part of the results.

The assay can be described thus: growth inhibition of PfHsp90-dependent yeast, primary screen, antimalarial PfHsp90 inhibitor project, S. cerevisiae, BacTiter-Glo luminescence (AID 504594).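 Also: 0% = DMSO neutral control wells and 100% = 20 µM radicicol control wells; higher value means stronger growth inhibition because the sign is flipped.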 The following applies: S. cerevisiae expressing PfHsp90, BacTiter-Glo growth, 48 h; at 9.4 µM; active compounds read high.
As for `CCOc1ccc(C2C(C#N)=C(N)Oc3c2c(=O)oc2ccccc32)cc1` (centres undefined), the growth inhibition was inactive: 5.8%.
For `CC12CCC3C(CC=C4CC5(CCC43C)OCCO5)C1CCC2=O` (centres undefined), the growth inhibition was inactive: -6.3%.
Then `CC(C)CC12CN3CCN(CC(C3)C1O)C2` (centres undefined), with inactive: -2.34%; and `Nc1ccncc1`, with inactive: 4.61%; and `C[N+]1(C)CCOC(O)(c2ccc(-c3ccc(C4(O)C[N+](C)(C)CCO4)cc3)cc2)C1` (centres undefined), with inactive: 5.62%.
`C[C@]12CCC(=O)C=C1CC[C@@H]1[C@@H]2C(=O)C[C@]2(C)C(=O)CC[C@@H]12`: the growth inhibition is inactive: 4.64%.
As for `COc1ccc(C(=O)N2CCCC2=O)cc1`, the growth inhibition is inactive: -2.12%.
Then `O=C(O)CCCc1ccc(N(CCCl)CCCl)cc1`, with inactive: 4.52%; and `CN1C(=O)N(C)C(=O)C2(Cc3ccccc3N3CCOCC32)C1=O` (centres undefined), with inactive: 6.46%.
The same measure for `Cc1cc(Cl)ccc1OCC(=O)O`: inactive: -5.95%.
Turning to `CCNC(=S)N(C)CCc1cc2c(c(OC)c1C=C1C(=O)N(C)C(=O)N(C)C1=O)OCO2`, the growth inhibition is inactive: 6.5%.
For `COc1cc2c3cc1Oc1cc(ccc1O)C[C@@H]1c4c(cc(OC)c(O)c4Oc4ccc(cc4)C[C@H]3N(C)CC2)CCN1C`, the growth inhibition was inactive: -1.85%.
For `NNC(=O)c1ccc(Cl)cc1`, the growth inhibition was inactive: -2.65%.
The same measure for `Clc1ccc(CSC(Cn2ccnc2)c2ccc(Cl)cc2Cl)cc1` (centres undefined): active: 95%.
Then `CCCC[N+]1(C)[C@@H]2CC(OC(=O)[C@H](CO)c3ccccc3)C[C@H]1[C@@H]1O[C@@H]12` (some centres undefined), with inactive: -5.17%; and `CC(CCc1ccccc1)NC(C)C(O)c1ccc(O)cc1` (centres undefined), with inactive: -1.15%.
On to `O=C1CN=C(c2ccccc2F)c2cc(Cl)ccc2N1`, for which the growth inhibition was inactive: 3.26%.
As for `C[C@H](O)[C@H]1CC[C@H]2[C@@H]3CCC4=CC(=O)CC[C@]4(C)[C@H]3CC[C@]12C`, the growth inhibition is inactive: 21.6%.
The same measure for `CC(C)C[C@H](NC(=O)[C@@H]1CCCN1C(=O)[C@@H](N)Cc1ccc(O)cc1)C(=O)NCC(N)=O`: inactive: 7.67%; for `COc1ccc(Cc2nccc3cc(OC)c(OC)cc23)cc1OC`: inactive: 4.7%; for `CC1CCC[C@H](O)CCCCCc2cc(O)cc(O)c2C(=O)O1` (some centres undefined): inactive: 5.1%.
Then `CN1C2CCC1CC(OC(=O)c1ccc(Cl)cc1)C2` (centres undefined), with inactive: -6.17%.
Then `CC(C)(C)NCC(O)c1cc(Cl)c(N)c(Cl)c1` (centres undefined), with inactive: 1.41%.
`CCOC(=O)c1cc2c(cn1)[nH]c1ccccc12`: the growth inhibition was inactive: 1.36%.
Then `COP(=S)(OC)SCN1C(=O)c2ccccc2C1=O`, with inactive: 0.176%; and `C[C@H]1CCC[C@H](O)CCCCCc2cc(O)cc(O)c2C(=O)O1`, with inactive: -3.6%; and `COC1=CC(=O)OC(/C=C/c2ccccc2)C1` (centres undefined), with inactive: -32.1%.
Take `Clc1ccc(C2NCCc3[nH]cnc32)cc1` (centres undefined): the growth inhibition was inactive: -3.96%.
Then `CC12CN3CC(C)(CN(C1)C3c1cccs1)C2O` (centres undefined), with inactive: 0.928%; and `CC(C)NC(C)C(=O)c1ccc2ccccc2c1` (centres undefined), with inactive: -5.95%; and `CCN1CC2(COC(=O)c3ccccc3N)CCC(OC)C34C5CC6C(OC)CC(O)(C5C6OC)C(O)(C(OC)C23)C14` (centres undefined), with inactive: -3.51%.
Take `COc1ccc(OC)c([C@@H](O)[C@H](C)NC(C)(C)C)c1`: the growth inhibition was inactive: -7.13%.
Turning to `NCCc1ccc(O)cc1`, the growth inhibition is inactive: -16.5%.
The same measure for `C[N+]1(C)CCN(c2ccccc2)CC1`: inactive: 4.14%; for `COc1ccc2c3c([nH]c2c1)C(C)=NCC3`: inactive: 4.68%.
`C[C@@H]1O[C@@H](O[C@H]2C[C@@H](O)[C@]3(CO)[C@H]4[C@H](O)C[C@]5(C)[C@@H](C6=CC(=O)OC6)CC[C@]5(O)[C@@H]4CC[C@]3(O)C2)[C@H](O)[C@H](O)[C@H]1O`: the growth inhibition was inactive: 5.88%.
The same measure for `O=S(=O)(c1ccc(F)cc1)N1CCCCC1c1cccnc1` (centres undefined): inactive: -1.69%.
Then `CC(=O)C1=C(C)OC(N)=C(C(=O)OC(C)C)C12C(=O)Nc1ccccc12` (centres undefined), with inactive: 5.93%; and `[N-]=[N+]=CC(=O)OC[C@H](N)C(=O)O`, with inactive: -4.59%.
The same measure for `Fc1ccc(C(OCCN2CCCC2)c2ccc(Br)cc2)cc1` (centres undefined): inactive: 1.04%; for `CCOC(=O)C1=C(C)OC(N)=C(C(=O)OCC)[C@@]12C(=O)N(CC(N)=O)c1ccccc12`: inactive: -3.76%; for `C[N+]1(C)[C@@H]2CC[C@H]1CC(OC(=O)C(CO)c1ccccc1)C2` (some centres undefined): inactive: 4.41%.
Take `C=C1[C@@H](C)[C@H]2[C@H](Cc3ccccc3)NC(=O)[C@]23OC(=O)/C=C/[C@H](O)CCC[C@@H](C)C/C=C/[C@H]3[C@@H]1O`: the growth inhibition was inactive: 0.455%.
On to `CC/C(=C\C=C\[C@@H]1C=C[C@@H]2CCC[C@H]2[C@@H]1C(=O)c1ccc[nH]1)[C@@H]1O[C@@H]([C@@H](C)C(=O)O)CC[C@@H]1C`, for which the growth inhibition was inactive: -7.02%.
In the case of `CN1CCN(C(=O)OC2c3nccnc3C(=O)N2c2ccc(Cl)cn2)CC1` (centres undefined), the growth inhibition was inactive: 6.28%.
Then `CCn1ccnc1CN1CCCC(C(=O)c2cc(F)ccc2OC)C1` (centres undefined), with inactive: -6.85%.
For `CCNC(=O)[C@H]1O[C@@H](n2cnc3c(N)ncnc32)[C@H](O)[C@@H]1O`, the growth inhibition is inactive: -1%.
The same measure for `Cc1cccc(C)c1NC1=NCCCS1`: inactive: -4.38%; for `Cc1cc(OCc2cc(C(=O)O)oc2C)c2c3c(c(=O)oc2c1)CCCC3`: inactive: -7.84%; for `NC(=O)CN1CCCC1=O`: inactive: -9.68%.
On to `O=C1NC(=O)C2(Cc3ccccc3N3CCCC32)C(=O)N1c1ccc(Cl)cc1` (centres undefined), for which the growth inhibition was inactive: -0.293%.
The same measure for `Cc1c2ccncc2c(C)c2c1[nH]c1ccccc12`: inactive: 2.27%; for `Cc1nc2ccccc2c(=O)n1-c1ccc(C(=O)O)cc1`: inactive: -0.979%.
The same measure for `COc1cc(/C=C2\C(=O)NC(=O)N(c3ccccc3)C2=O)c([N+](=O)[O-])cc1OC`: inactive: -1.53%; for `CN1C2CCC1CC(OC(=O)CCN1CCCC1)C2` (centres undefined): inactive: 0.059%; for `O=C1C(=O)c2ccccc2-c2ccccc21`: inactive: 6.98%.
Regarding `CCOC(=O)C(C)Oc1cc(C)cc2oc(=O)c3c(c12)CCCC3` (centres undefined), the growth inhibition was inactive: -17.7%.
The same measure for `CN1CC[C@@]23CCCC[C@@H]2[C@@H]1Cc1ccc(O)cc13`: inactive: -15%; for `C[N+](C)(C)Cc1ccccc1`: inactive: 4.06%.
